Reference: US20050266513A1
No constants are given. Whether binding was seen depends on the method and setting. For some assays here: In cells and extracts the contact can be indirect. Some binding calls cover weakened binding; strength is not graded here.

Sequences of proteins named here, by UniProt entry; tags and fusion partners are left off. A change or cut given only in a name is not applied to a line headed by its entry.
UniProt Q7Z6Z7: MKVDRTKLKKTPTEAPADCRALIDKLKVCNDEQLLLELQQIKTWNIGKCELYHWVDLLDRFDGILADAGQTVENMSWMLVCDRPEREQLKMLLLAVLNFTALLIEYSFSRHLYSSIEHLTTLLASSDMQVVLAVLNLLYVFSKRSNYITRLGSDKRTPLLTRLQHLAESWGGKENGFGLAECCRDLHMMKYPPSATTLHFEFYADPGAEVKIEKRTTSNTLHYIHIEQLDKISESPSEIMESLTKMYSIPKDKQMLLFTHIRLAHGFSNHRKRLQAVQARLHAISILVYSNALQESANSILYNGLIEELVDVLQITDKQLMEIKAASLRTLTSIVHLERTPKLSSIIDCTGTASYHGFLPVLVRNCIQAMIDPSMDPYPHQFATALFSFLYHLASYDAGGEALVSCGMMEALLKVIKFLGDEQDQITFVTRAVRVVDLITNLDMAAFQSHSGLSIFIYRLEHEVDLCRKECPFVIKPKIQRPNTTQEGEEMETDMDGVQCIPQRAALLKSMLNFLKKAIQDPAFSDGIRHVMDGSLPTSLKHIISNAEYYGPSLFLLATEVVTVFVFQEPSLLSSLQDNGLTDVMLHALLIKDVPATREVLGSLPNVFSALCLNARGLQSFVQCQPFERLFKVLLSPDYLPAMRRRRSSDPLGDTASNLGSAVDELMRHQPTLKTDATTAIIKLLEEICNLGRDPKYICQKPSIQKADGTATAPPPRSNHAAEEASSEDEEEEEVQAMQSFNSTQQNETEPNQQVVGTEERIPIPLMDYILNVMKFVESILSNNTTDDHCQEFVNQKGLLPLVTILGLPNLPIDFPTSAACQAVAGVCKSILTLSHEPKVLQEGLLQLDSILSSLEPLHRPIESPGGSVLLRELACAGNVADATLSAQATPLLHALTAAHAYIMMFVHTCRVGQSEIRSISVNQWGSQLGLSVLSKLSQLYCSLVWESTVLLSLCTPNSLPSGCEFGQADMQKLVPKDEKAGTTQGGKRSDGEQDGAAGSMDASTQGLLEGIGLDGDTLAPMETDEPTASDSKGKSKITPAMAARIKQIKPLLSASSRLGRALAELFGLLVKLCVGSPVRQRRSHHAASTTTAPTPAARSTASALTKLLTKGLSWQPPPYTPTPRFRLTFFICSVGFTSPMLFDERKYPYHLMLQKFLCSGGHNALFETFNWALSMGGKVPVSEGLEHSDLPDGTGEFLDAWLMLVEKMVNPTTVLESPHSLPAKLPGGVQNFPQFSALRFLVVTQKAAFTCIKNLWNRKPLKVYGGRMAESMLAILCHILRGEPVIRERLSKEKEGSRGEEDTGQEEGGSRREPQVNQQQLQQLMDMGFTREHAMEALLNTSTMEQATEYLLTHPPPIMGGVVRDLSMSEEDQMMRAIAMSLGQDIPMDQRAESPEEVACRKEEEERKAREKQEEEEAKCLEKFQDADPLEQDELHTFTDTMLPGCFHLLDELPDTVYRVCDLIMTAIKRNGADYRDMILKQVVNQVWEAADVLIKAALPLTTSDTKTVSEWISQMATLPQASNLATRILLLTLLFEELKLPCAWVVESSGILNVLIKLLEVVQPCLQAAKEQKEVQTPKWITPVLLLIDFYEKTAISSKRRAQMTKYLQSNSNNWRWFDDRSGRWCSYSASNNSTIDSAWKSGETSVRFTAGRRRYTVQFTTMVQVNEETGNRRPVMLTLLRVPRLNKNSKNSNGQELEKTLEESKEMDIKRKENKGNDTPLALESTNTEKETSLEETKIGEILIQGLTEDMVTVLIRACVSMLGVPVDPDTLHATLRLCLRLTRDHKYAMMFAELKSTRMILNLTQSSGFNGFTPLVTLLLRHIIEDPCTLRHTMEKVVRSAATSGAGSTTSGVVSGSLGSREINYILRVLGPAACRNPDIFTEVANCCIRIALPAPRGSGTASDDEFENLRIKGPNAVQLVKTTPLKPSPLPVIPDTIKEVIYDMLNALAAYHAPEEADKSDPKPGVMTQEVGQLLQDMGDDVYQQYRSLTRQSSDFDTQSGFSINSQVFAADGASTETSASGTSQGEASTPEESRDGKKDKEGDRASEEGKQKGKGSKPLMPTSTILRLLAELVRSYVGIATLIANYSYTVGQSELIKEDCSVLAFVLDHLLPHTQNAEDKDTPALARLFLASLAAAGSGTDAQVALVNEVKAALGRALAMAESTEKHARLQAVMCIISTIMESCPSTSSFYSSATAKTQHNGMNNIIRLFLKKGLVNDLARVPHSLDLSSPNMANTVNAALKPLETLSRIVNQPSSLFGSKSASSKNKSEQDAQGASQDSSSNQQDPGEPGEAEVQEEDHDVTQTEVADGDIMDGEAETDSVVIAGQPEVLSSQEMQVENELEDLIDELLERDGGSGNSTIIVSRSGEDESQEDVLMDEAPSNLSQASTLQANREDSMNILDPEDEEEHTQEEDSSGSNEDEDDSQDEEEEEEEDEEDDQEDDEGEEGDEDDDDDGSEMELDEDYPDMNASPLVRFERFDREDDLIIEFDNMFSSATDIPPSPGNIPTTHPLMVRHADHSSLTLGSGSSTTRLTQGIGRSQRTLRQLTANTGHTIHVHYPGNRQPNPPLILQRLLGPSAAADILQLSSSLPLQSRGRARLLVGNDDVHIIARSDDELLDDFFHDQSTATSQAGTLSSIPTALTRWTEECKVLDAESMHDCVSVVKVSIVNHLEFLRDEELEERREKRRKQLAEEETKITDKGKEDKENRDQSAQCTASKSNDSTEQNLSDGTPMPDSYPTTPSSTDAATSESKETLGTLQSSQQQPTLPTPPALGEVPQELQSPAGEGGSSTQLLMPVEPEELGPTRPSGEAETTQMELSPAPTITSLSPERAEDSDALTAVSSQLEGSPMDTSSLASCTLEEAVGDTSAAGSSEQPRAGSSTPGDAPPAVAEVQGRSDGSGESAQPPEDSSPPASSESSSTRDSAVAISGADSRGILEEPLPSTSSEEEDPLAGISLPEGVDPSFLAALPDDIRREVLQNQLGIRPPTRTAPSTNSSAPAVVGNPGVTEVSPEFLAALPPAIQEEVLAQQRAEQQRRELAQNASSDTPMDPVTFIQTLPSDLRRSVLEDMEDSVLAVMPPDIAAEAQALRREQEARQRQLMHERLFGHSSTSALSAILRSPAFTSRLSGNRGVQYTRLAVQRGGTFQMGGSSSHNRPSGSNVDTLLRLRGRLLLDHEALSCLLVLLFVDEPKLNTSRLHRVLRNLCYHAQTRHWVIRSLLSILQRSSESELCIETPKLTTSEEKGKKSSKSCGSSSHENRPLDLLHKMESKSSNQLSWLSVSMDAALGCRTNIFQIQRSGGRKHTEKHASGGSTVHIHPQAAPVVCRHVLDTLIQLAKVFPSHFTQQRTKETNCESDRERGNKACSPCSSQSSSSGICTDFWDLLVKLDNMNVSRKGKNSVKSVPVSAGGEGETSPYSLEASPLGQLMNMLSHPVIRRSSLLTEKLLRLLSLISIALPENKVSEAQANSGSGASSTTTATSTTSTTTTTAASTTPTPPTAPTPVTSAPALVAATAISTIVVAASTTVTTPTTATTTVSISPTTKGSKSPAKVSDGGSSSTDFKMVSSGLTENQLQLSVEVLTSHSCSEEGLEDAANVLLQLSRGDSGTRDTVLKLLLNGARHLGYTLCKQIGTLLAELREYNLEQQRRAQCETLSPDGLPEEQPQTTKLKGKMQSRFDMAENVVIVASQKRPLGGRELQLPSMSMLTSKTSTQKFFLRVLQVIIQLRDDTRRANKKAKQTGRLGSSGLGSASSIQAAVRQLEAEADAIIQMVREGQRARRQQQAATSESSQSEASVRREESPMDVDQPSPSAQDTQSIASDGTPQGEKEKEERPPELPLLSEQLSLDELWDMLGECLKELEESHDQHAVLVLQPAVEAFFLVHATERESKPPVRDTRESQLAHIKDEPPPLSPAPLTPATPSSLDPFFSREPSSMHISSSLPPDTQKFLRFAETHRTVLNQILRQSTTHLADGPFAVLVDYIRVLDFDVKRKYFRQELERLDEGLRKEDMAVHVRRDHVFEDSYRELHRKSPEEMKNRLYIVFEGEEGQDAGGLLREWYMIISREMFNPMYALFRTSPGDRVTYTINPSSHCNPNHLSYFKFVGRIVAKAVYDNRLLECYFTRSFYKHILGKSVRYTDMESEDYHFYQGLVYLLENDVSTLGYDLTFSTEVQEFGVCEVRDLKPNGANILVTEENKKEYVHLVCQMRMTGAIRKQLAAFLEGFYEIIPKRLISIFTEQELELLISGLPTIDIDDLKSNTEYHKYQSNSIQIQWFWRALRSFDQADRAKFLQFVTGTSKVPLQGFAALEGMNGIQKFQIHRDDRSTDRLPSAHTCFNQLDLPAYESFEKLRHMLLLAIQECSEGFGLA

Legend:
[1] = biological target: HectH9 (full-length HECT-domain E3-ligase) (human) (UniProt Q7Z6Z7); test: figure description
[2] = biological target: HectH9 (full-length HECT-domain E3-ligase) (human) (UniProt Q7Z6Z7); test: co-immunoprecipitation from transiently transfected HeLa cells, anti-Miz1 blot
[3] = biological target: HectH9 (full-length HECT-domain E3-ligase) (human) (UniProt Q7Z6Z7); test: in vitro translated 35S-labelled proteins mixed, anti-HectH9 immunoprecipitation
[4] = biological target: HectH9 (full-length HECT-domain E3-ligase) (human) (UniProt Q7Z6Z7); test: in vitro translated 35S-labelled proteins mixed, immunoprecipitation, autoradiogram
[5] = biological target: HectH9 (full-length HECT-domain E3-ligase) (human) (UniProt Q7Z6Z7); test: co-immunoprecipitation from transfected HeLa cells

binding [1]: binds
binding [2]: binds
binding [3]: binds
binding [4]: binds
binding [5]: binds
B1: Miz1 (protein, UniProt Q13105 1-803, looked up)
chain: MDFPQHSQHVLEQLNQQRQLGLLCDCTFVVDGVHFKAHKAVLAACSEYFKMLFVDQKDVVHLDISNAAGLGQVLEFMYTAKLSLSPENVDDVLAVATFLQMQDIITACHALKSLAEPATSPGGNAEALATEGGDKRAKEEKVATSTLSRLEQAGRSTPIGPSRDLKEERGGQAQSAASGAEQTEKADAPREPPPVELKPDPTSGMAAAEAEAALSESSEQEMEVEPARKGEEEQKEQEEQEEEGAGPAEVKEEGSQLENGEAPEENENEESAGTDSGQELGSEARGLRSGTYGDRTESKAYGSVIHKCEDCGKEFTHTGNFKRHIRIHTGEKPFSCRECSKAFSDPAACKAHEKTHSPLKPYGCEECGKSYRLISLLNLHKKRHSGEARYRCEDCGKLFTTSGNLKRHQLVHSGEKPYQCDYCGRSFSDPTSKMRHLETHDTDKEHKCPHCDKKFNQVGNLKAHLKIHIADGPLKCRECGKQFTTSGNLKRHLRIHSGEKPYVCIHCQRQFADPGALQRHVRIHTGEKPCQCVMCGKAFTQASSLIAHVRQHTGEKPYVCERCGKRFVQSSQLANHIRHHDNIRPHKCSVCSKAFVNVGDLSKHIIIHTGEKPYLCDKCGRGFNRVDNLRSHVKTVHQGKAGIKILEPEEGSEVSVVTVDDMVTLATEALAATAVTQLTVVPVGAAVTADETEVLKAEISKAVKQVQEEDPNTHILYACDSCGDKFLDANSLAQHVRIHTAQALVMFQTDADFYQQYGPGGTWPAGQVLQAGELVFRPRDGAEGQPALAETSPTAPECPPPAE
